Assay [1] concerns the target transcription factor MYC, endogenous (human (endogenous in SH-SY5Y, SK-N-AS)). Nature of the assay: co-IP; endogenous proteins in SH-SY5Y and SK-N-AS cells, western blot; also cells treated with solvent or TCZ (20 uM), DMSO or UU-T02 (1.0 uM). A general note: In western blotting, separated proteins are transferred to a membrane and probed.
Assay [2] concerns the target MYC-VN173 (human). Briefly: split reporter; split Venus BiFC, SK-N-BE(2) cells co-transfected for 24 h, confocal microscopy.

Here are results for two molecules from article PMC12775802, “Dual targeting of AMRC12 and Malassezia globosa disrupts MYC liquid condensates-driven nuclear pore complex biogenesis in neuroblastoma” (Theranostics, 2026).

These are yes or no findings as the source states them, for the method shown. Binding seen in cells or lysates may run through a third protein. A result given as binding can be weak or reduced; the word gives no strength.

B1: armadillo repeat containing 12 (ARMC12), endogenous (protein, UniProt Q5T9G4-2 1-367)
chain: MGKSIPQYLGQLDIRKSVVSLATGAGAIYLLYKAIKAGIKCKPPLCSNSPICIARECPGPGERALPQEAPAPEASAVGGPKGLAVERERHGRDSGELRRLLNSLECKQDEYAKSMILHSITRCVYLLEAEASACTTDDIVLLGYMLDDKDNSVKTQALNTLKAFSGIRKFRLKIQEHSIKVLELISTIWDTELHIAGLRLLNNLPLPDYVHPQLRRVMPALMEILQSDYILAQVQAVRLLSYLAQKNDLLYDILNCQVHSNFLNLFQPTQSGSLLYEVLVFAERLSEGRNAPHYHVVKWHYNEQSLHESLFGEESRLADRLLALVIHPEEDVQIQACKVIVSLQYPQDLRARPSSCQPSRSYFKNTE
On to B1, for which the binding entry in assay [1] is given as “binds”.

B2: ARMC12-VC155 (protein, UniProt Q5T9G4-2 1-367)
chain: MGKSIPQYLGQLDIRKSVVSLATGAGAIYLLYKAIKAGIKCKPPLCSNSPICIARECPGPGERALPQEAPAPEASAVGGPKGLAVERERHGRDSGELRRLLNSLECKQDEYAKSMILHSITRCVYLLEAEASACTTDDIVLLGYMLDDKDNSVKTQALNTLKAFSGIRKFRLKIQEHSIKVLELISTIWDTELHIAGLRLLNNLPLPDYVHPQLRRVMPALMEILQSDYILAQVQAVRLLSYLAQKNDLLYDILNCQVHSNFLNLFQPTQSGSLLYEVLVFAERLSEGRNAPHYHVVKWHYNEQSLHESLFGEESRLADRLLALVIHPEEDVQIQACKVIVSLQYPQDLRARPSSCQPSRSYFKNTE
Take B2: in assay [2], the binding result is recorded as “binds”.
